From publication PMC5404317 come the findings set out here.

Amino acid sequences for entries named in this document (tags omitted). A change or cut given only in a name is not applied to a line headed by its entry.
UniProt Q9BXM7: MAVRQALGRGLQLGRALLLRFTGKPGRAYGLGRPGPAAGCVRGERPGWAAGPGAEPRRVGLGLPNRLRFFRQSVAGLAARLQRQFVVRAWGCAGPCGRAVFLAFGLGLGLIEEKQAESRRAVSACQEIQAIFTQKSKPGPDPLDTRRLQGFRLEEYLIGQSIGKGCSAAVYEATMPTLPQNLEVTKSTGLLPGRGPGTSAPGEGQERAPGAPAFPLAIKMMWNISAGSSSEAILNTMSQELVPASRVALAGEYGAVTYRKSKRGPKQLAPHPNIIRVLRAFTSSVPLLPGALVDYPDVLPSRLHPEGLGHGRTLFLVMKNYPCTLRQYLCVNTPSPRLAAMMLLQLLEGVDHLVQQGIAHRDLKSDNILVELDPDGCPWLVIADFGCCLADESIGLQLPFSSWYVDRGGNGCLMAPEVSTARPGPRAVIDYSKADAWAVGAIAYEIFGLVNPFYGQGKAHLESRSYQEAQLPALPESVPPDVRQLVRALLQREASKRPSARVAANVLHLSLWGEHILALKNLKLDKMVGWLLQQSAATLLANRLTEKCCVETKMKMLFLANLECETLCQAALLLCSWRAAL

In experiment [1] the target is PINK1-V5 WT (V5-6xHis-tagged PINK1 wild type) (human) (UniProt Q9BXM7). Kind of experiment: co-IP; as a1, the samples of HeLa cells left untreated (no CCCP) only.
Experiment [2] addresses PINK1-V5 p.L347P (V5-6xHis-tagged) (human) (UniProt Q9BXM7). The experiment is described as follows: co-IP; PINK1-V5 precipitated with mouse anti-V5-agarose beads overnight at 4 °C from total lysates of transfected HeLa cells, left untreated or treated with CCCP for 2 h; co-IP buffer 50 mM HEPES pH 7.5, 150 mM NaCl, 10 mM KCl, 1.5 mM MgCl2, 1 mM EDTA, 0.5 mM EGTA, 10% glycerol, 0.2% NP-40; blots for V5, HSP90, CDC37, TOM40.

Experiment [3] has as its target PINK1-V5 WT (V5-6xHis-tagged PINK1 wild type) (human) (UniProt Q9BXM7). The description is as above.

No constants are given. Whether binding was seen depends on the method and setting. Binding seen in cells or lysates may run through a third protein. For part of these data: A result given as binding can be weak or reduced; the word gives no strength.

B1: TOM40 (protein, UniProt O96008 1-361)
chain: MGNVLAASSPPAGPPPPPAPALVGLPPPPPSPPGFTLPPLGGSLGAGTSTSRSSERTPGAATASASGAAEDGACGCLPNPGTFEECHRKCKELFPIQMEGVKLTVNKGLSNHFQVNHTVALSTIGESNYHFGVTYVGTKQLSPTEAFPVLVGDMDNSGSLNAQVIHQLGPGLRSKMAIQTQQSKFVNWQVDGEYRGSDFTAAVTLGNPDVLVGSGILVAHYLQSITPCLALGGELVYHRRPGEEGTVMSLAGKYTLNNWLATVTLGQAGMHATYYHKASDQLQVGVEFEASTRMQDTSVSFGYQLDLPKANLLFKGSVDSNWIVGATLEKKLPPLPLTLALGAFLNHRKNKFQCGFGLTIG
As to B1, the values for the binding result in experiment [1], in experiment [2] and in experiment [3] were “no binding (only cells without CCCP treatment)”, “no binding” and “binds”, respectively.
